# Among all 300,000 compounds or so, about 3,700 (1.2%) were called active. The inconclusive results got no clear call from the source; some entries with a clear call stand among them for comparison. Calls follow the shape of the full dose curve; tested in HEK293 cells. Potencies beside an inconclusive call are fits to weak or partial responses and may not hold up.
# Assay: qHTS for Inhibitors of binding or entry into cells for Lassa Virus; also: nearly all actives have a fitted effect of over 50% in size
# Conditions: Lassa virus pseudotype entry inhibition, cell reporter; series mostly up to 37.9 µM
# Potency is read from the fitted curve at half-maximal effect.
row,SMILES,Potency
1,CC(=O)c1c(C)[nH]c(C(=O)COC(=O)c2cc(S(=O)(=O)N(C)c3ccccc3)ccc2Cl)c1C,"inconclusive: 2.82 µM [activator, partial curve, poor fit]"
2,CCc1ccc(NC(=O)COC(=O)CCCC2=NS(=O)(=O)c3ccccc3N2)cc1,"inconclusive: 6.31 µM [activator, partial curve]"
3,Cc1nc(SCC(=O)N2CCCCC2)c2c(C)c(C)sc2n1,"inconclusive: 7.94 µM [inhibitor, partial curve, poor fit]"
4,Cc1cc(C)nc(SCC(=O)OCC(=O)Nc2nc3ccccc3s2)n1,"inconclusive: 7.94 µM [activator, partial curve, poor fit]"
5,CCOc1ccc(CN(C(=O)c2ccccn2)c2ccc(OC)c(Cl)c2)cc1,"inconclusive: 10 µM [inhibitor, partial curve]"
6,O=C(NCc1ccccc1)c1cccc(NC(=O)C2CCCCC2)c1,"inconclusive: 5.6 µM [inhibitor, full curve, poor fit]"
7,CCC(C)NC(=O)c1ccccc1NC(=O)c1ccc(CSc2ccccc2)cc1 (stereo unspecified),"inconclusive: 35.5 µM [inhibitor, single point]"
8,NC(=O)c1ccsc1NC(=O)COC(=O)c1cc(Cl)ccc1O,inactive
9,N#Cc1ccccc1NC(=O)C(=O)NCCc1csc(-c2ccc(C(F)(F)F)cc2)n1,"inconclusive: 8.91 µM [activator, partial curve]"
10,CCN(N=O)c1ccc(C=C2C=Cc3ccccc32)cc1,active: 3.98 µM
11,N#Cc1c(N)nc2c(c1-c1cccc(O)c1)CCCCCC2,"inconclusive: 32.6 µM [inhibitor, single point]"
12,COc1ccc(-n2ccnc2SCC(=O)NCc2ccc(F)cc2)c(OC)c1,"inconclusive: 6.31 µM [activator, single point]"
13,CC(C(=O)Nc1cccc(S(=O)(=O)N2CCOCC2)c1)N1CCN(C/C=C/c2ccccc2)CC1 (stereo unspecified),"inconclusive: 3.98 µM [inhibitor, partial curve]"
14,Cc1cc(C)nc(/N=C(\N)N(Cc2ccccc2)Cc2ccccc2)n1,"inconclusive: 35.5 µM [inhibitor, single point]"
15,CC(C)(C)c1ccc(S(=O)(=O)N2CCN(CC(O)CN3CCOCC3)CC2)cc1 (stereo unspecified),inactive
16,COc1ccc(Cc2nnc(N/N=C/c3ccc(C)o3)[nH]c2=O)cc1,"inconclusive: 20 µM [inhibitor, partial curve, poor fit]"
17,Cn1ccc(C(=O)OCC(=O)c2ccccc2)n1,inactive
18,COc1cccc(C(=O)Nc2ncc3c(n2)CC(c2ccc(OC)cc2OC)CC3=O)c1 (stereo unspecified),inactive
19,COc1ccc(Nc2nc(Nc3ccc(OC)cc3)nc(SC3=NCCS3)n2)cc1,"inconclusive: 35.5 µM [inhibitor, single point]"
20,CC1=C(C(=O)OCCc2ccccc2)C(c2ccsc2)NC(=O)N1C (stereo unspecified),"inconclusive: 23.1 µM [inhibitor, single point]"
21,COc1ccc(-c2cc(C(=O)N3CCOCC3)no2)cc1OC,inactive

# Rewritten tab-delimited: entries from further up.
row	SMILES	Potency
3	Cc1nc(SCC(=O)N2CCCCC2)c2c(C)c(C)sc2n1	inconclusive: 7.94 µM [inhibitor, partial curve, poor fit]
15	CC(C)(C)c1ccc(S(=O)(=O)N2CCN(CC(O)CN3CCOCC3)CC2)cc1 (stereo unspecified)	inactive
21	COc1ccc(-c2cc(C(=O)N3CCOCC3)no2)cc1OC	inactive

# The list goes on.

row,SMILES,Potency
1,COC(=O)Nc1ccc(S(=O)(=O)N2CCC(Cc3ccccc3)CC2)cc1,active: 20.6 µM
2,COc1ccc2[nH]c(O)c(N=O)c2c1,inactive
3,C[N+](C)(C)CCOP(=O)(O)OP(=O)([O-])OC[C@H]1O[C@@H](n2ccc(N)nc2=O)[C@H](O)[C@@H]1O,"inconclusive: 0.058 µM [activator, full curve]"
4,O=C(Nc1ccc2c(c1)OCCO2)C1CCN(c2nnnn2-c2ccccc2)CC1,"inconclusive: 10.3 µM [inhibitor, partial curve, poor fit]"
5,O=C(NCc1cccnc1)c1ccc(Cl)cc1[N+](=O)[O-],"inconclusive: 0.0517 µM [inhibitor, partial curve, poor fit]"
6,COc1ccc(CCNC2=CC(=O)N(c3ccc(F)cc3)C2=O)cc1,"inconclusive: 3.98 µM [inhibitor, partial curve, poor fit]"
7,O=C(O)C1CC=CCC1C(=O)Nc1ccccc1C(=O)N1CCN(c2ccc(Cl)cc2)CC1 (stereo unspecified),"inconclusive: 8.91 µM [inhibitor, partial curve]"
8,CCC(=O)N1c2ccccc2CC1C(=O)NCc1cccc(OC)c1OC (stereo unspecified),inactive
9,COc1ccc(CCNC(=O)c2nn(C)cc2Cl)cc1,"inconclusive: 14.6 µM [activator, single point]"
10,C=CCn1c(O)c(/C=C2/C=c3ccccc3=N2)c(=O)[nH]c1=S,"inconclusive: 22.4 µM [activator, partial curve, poor fit]"
11,O=C(O)c1ccc(NS(=O)(=O)Cc2ccc(Cl)c(Cl)c2)cc1,"inconclusive: 1.26 µM [inhibitor, partial curve, poor fit]"
12,O=C1C=C(Nc2ccc(O)cc2)C(=O)c2ccccc21,"inconclusive: 22.4 µM [inhibitor, single point]"
13,CC1(C)CCCN(C(=O)c2ccc3c(c2NCCO)C(=O)c2ccccc2C3=O)C1,"inconclusive: 9.2 µM [inhibitor, partial curve]"
14,COc1cc(SC)ccc1C(=O)Nc1ccc2c(c1)OCCO2,active: 11.6 µM
15,O=C1c2cccc3c(N4CCOCC4)c([N+](=O)[O-])cc(c23)C(=O)N1c1cccc2ccccc12,"inconclusive: 1.84 µM [activator, single point]"
16,Cc1ccc(C(C[N+](=O)[O-])c2c(C)[nH]n(-c3ccccc3)c2=O)cc1 (stereo unspecified),"inconclusive: 0.731 µM [inhibitor, partial curve, poor fit]"
17,COC(=O)c1cn(NC(=O)c2cc(OC)c(OC)c(OC)c2)c(=O)c2ccccc12,"inconclusive: 29.1 µM [inhibitor, single point]"
18,CCc1ccc(OCC(=O)N2CCN(Cc3ccc4c(c3)OCO4)CC2)cc1,"inconclusive: 35.5 µM [inhibitor, single point]"
19,CSCCC(N=C(NS(=O)(=O)c1ccc(Br)cc1)c1ccccc1)C(=O)O (stereo unspecified),"inconclusive: 35.5 µM [activator, single point]"
20,O=C(Nc1nccs1)C1CCN(S(=O)(=O)c2cccs2)CC1,inactive

# Source: PubChem BioAssay AID540256 (National Center for Advancing Translational Sciences (NCATS), 2011)
